Data on 30 sequences can be found in publication PMC7862700.

Protein sequences, listed by entry. Tags and fused reporters are not part of them. Lines headed by an entry give the natural chain unless they say otherwise; changes in a name come on top.
UniProt Q9Y603: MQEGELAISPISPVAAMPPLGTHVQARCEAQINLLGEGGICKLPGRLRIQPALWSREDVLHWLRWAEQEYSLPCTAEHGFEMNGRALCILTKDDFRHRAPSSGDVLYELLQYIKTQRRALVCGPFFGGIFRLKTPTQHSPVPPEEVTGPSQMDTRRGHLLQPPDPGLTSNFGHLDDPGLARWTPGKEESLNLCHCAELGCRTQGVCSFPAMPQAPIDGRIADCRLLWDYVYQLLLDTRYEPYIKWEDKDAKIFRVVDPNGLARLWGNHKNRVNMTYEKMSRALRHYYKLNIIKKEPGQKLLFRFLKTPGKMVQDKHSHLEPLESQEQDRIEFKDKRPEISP
UniProt P41212: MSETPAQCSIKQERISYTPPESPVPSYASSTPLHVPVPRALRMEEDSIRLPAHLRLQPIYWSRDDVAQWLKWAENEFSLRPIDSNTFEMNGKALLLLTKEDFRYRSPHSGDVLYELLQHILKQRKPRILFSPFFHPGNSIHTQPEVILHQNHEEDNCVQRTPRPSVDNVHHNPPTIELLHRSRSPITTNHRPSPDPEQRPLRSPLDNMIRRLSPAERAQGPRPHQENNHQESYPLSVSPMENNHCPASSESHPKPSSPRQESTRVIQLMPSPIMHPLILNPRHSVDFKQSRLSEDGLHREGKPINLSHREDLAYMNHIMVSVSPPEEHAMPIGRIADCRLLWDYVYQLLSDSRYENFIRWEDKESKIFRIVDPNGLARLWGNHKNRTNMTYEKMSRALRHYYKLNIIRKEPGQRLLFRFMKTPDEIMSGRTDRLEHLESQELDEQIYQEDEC

Only a part is listed here, and it is no random draw. At the low end of the ranking, values are background and their order means little.

Common to all, as to assay: DAPPL (digital affinity profiling via proximity ligation, sequencing)
Holding throughout (conditions): 10 mM Tris-HCl pH 7.5, 50 mM NaCl, 1 mM DTT, 4% glycerol, room temperature, 30 min; GST-TFs on glutathione beads, 16-mer random dsDNA library, 0.1% …; high values mean tight binding; double strand, one strand shown; scale: fold enrichment (6-mer frequency, TF over GST control)

One experiment has as its target T1, ELF3 (UniProt P78545).
T1 sequence: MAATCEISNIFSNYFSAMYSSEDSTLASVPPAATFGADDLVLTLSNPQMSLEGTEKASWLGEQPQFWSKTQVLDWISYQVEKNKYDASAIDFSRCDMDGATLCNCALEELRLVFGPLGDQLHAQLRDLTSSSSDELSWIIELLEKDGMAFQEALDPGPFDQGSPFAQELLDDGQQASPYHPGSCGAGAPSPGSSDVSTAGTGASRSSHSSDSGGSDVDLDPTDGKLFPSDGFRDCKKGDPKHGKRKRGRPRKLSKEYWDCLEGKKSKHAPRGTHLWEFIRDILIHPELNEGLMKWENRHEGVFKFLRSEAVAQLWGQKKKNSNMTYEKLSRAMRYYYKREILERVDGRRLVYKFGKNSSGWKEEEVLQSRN

In the next experiment the target is ETV7 (UniProt Q9Y603).
The target of the next experiment is ETV6 (UniProt P41212).

With CTGAGG, the binding signal stood at 0.779 with ELF3, 0.918 in the experiment with ETV7 and 0.791 with ETV6.

For AGGTTC, the binding signal came to 0.988 in the experiment with ELF3, 0.791 with ETV7 and 0.783 with ETV6.

Consider ATCAAG, for which the binding signal with ELF3 worked out at 0.913; with ETV7, 0.922; in the experiment with ETV6 it was 0.974.

In the case of CACTGA, the binding signal stood at 0.984 in the experiment with ELF3, 0.946 with ETV7 and 0.964 with ETV6.

Turning to AGCGCT, the binding signal stood at 0.973 with ELF3, 0.978 in the experiment with ETV7 and 0.972 with ETV6.

ACTGGG: the values for the binding signal with ELF3, in the experiment with ETV7 and in the experiment with ETV6 were 0.742, 0.929 and 0.849, respectively.

For the sequence CTGGCG, the binding signal was 0.72 with ELF3, 0.789 with ETV7 and 0.794 with ETV6.

For the sequence GTCTGG, the results for the binding signal in the experiment with ELF3, with ETV7 and with ETV6 were 0.824, 0.927 and 0.827, respectively.

CGCACC: the binding signal with ELF3 turned out to be 0.994; with ETV7, 0.911; in the experiment with ETV6 it was 0.981.

In the case of TTAGCC, the figures for the binding signal with ELF3, with ETV7 and with ETV6 were 0.874, 0.942 and 0.939, respectively.

As to CATCGT, the binding signal worked out at 0.908 with ELF3, 0.899 with ETV7 and 0.923 with ETV6.

As to CTGTGG, the binding signal was 0.796 with ELF3, 0.882 in the experiment with ETV7 and 0.877 with ETV6.

With GCATTA, the binding signal with ELF3 was determined as 0.908; with ETV7, 0.845; with ETV6 it was 0.881.

GGCTTA: the binding signal turned out to be 1.14 with ELF3, 0.991 with ETV7 and 0.984 with ETV6.

As for CGCCAC, the values for the binding signal with ELF3, in the experiment with ETV7 and with ETV6 were 0.93, 0.999 and 0.957, respectively.

GTGCCG: the binding signal with ELF3 amounted to 0.932; in the experiment with ETV7 it was 0.91; with ETV6, 0.966.

On to GTTCGT, for which the binding signal in the experiment with ELF3 came to 0.963; with ETV7, 0.944; with ETV6 it was 0.99.

Consider ACTAGG, for which the binding signal in the experiment with ELF3 was determined as 0.991; with ETV7 it was 0.986; in the experiment with ETV6, 0.962.

For TCGAGG, the binding signal worked out at 0.825 with ELF3, 0.823 with ETV7 and 0.843 in the experiment with ETV6.

Turning to GCGCGT, the binding signal worked out at 0.88 with ELF3, 0.973 with ETV7 and 0.87 with ETV6.

For the sequence GACCAA, the binding signal stood at 0.86 in the experiment with ELF3, 0.858 with ETV7 and 0.872 with ETV6.

Consider CGCACA, for which the results for the binding signal with ELF3, in the experiment with ETV7 and in the experiment with ETV6 were 0.956, 0.961 and 0.974, respectively.

Regarding CAAAGA, the binding signal in the experiment with ELF3 worked out at 0.916; in the experiment with ETV7, 0.936; in the experiment with ETV6 it was 0.957.

As to GCCTGG, the binding signal in the experiment with ELF3, in the experiment with ETV7 and with ETV6 was 0.939 in each case.

For AGGGTT, the binding signal with ELF3 was determined as 0.886; with ETV7, 0.872; with ETV6 it was 0.921.

For TGTTGG, the figures for the binding signal in the experiment with ELF3, with ETV7 and in the experiment with ETV6 were 0.969, 0.91 and 0.911, respectively.

Take CGAGAT: the figures for the binding signal with ELF3, with ETV7 and in the experiment with ETV6 were 0.936, 0.926 and 0.91, respectively.

With CCAACA, the binding signal with ELF3 was 1.06; with ETV7, 1.05; with ETV6 it was 0.966.

On to GCCATT, for which the values for the binding signal with ELF3, with ETV7 and with ETV6 were 0.979, 0.962 and 0.947, respectively.

Regarding GCAGGT, the binding signal with ELF3 stood at 0.974; in the experiment with ETV7, 0.879; with ETV6, 0.87.
